Patent US20110028538
The exact form of at least one protein or probe is not confirmed. For some of these results: No signal at the amounts used counts as a negative. Protein sequences can lack the tags named with them.

Legend:
[1] = molecular target: T1, TR4 (NR2C2) (Homo sapiens) (UniProt P49116); assay: EMSA; conditions: protein translated in vitro; protein details: expressed from pCMX-TR4, full length human; label: 32P
T1 sequence: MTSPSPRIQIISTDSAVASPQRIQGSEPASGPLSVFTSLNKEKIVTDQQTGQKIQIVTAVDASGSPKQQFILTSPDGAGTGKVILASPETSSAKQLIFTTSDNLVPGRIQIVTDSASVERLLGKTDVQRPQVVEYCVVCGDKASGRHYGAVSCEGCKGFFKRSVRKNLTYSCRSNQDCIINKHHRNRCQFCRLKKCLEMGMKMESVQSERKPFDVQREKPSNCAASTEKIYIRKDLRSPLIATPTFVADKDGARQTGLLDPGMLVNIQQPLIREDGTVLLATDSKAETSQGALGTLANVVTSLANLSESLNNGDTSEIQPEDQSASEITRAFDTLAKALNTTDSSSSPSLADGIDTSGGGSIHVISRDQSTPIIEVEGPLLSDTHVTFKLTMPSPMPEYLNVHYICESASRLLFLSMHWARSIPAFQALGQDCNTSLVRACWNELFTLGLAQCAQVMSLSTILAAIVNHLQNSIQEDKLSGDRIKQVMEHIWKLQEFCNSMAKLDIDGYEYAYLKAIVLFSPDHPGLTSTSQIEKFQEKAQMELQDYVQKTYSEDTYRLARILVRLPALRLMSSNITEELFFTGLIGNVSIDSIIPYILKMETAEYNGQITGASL

[2] = molecular target: T1, TR4 (NR2C2) (Homo sapiens); assay: activity in cells; conditions: protein in cells, protein details: pCMX-TR4 transfected in CV-1, only the site is given
[3] = molecular target: T1, TR4 (NR2C2) (Homo sapiens); assay: competition with a labelled probe; conditions: excess mutant TR4RE did not compete for TR4-TR4RE complex; protein translated in vitro; protein details: expressed from pCMX-TR4, full length human; variant of CD36 promoter TR4RE

| Sequence | binding result [1] | activity on this sequence ([2]; 300-bp CD36 promoter luciferase in CV-1, dose-dependent activation) | binding result [3] | activity on this sequence ([2]; mutant CD36 promoter luciferase not activated by TR4, variant of CD36 promoter TR4RE) |
| --- | --- | --- | --- | --- |
| TGGCCTCTGACTT (double strand) [CD36 promoter TR4RE] | binds | active |  |  |
| TGAAACTGACTT (double strand) [mutant TR4RE] |  |  | no binding | not active |
